Laboratory results: PubChem BioAssay AID1671195 (Yale University, 2021)
Shown is a random part of about 22,000 deposited reagents. In the full data, about 1,510 (6.9%) are marked active. 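Active includes knockdowns raising or lowering LDL uptake; positive z-scores mean more uptake, negative mean less.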 Reagent sequences are not shown.

Screen: 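Genes whose knockdown alters LDL uptake in liver cancer cells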 (primary screen)
System: human Huh7 hepatoma cells
Reagent: siRNA pool against human genes, 18 nM
Time to read-out: about 2 to 2.5 days of knockdown, then 8 h LDL uptake
Treatment: DiI-labelled LDL at 30 µg/ml for 8 h, in lipoprotein-deficient serum medium
Measured: 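Fluorescent LDL signal imaged in cells, scaled to the plate median, robust z-score for each replicate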
Scale: robust z-score: higher = more LDL uptake after knockdown
Call rule: 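a gene counts as active if at least two replicate z-scores exceed ±2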

target gene	robust z-score, replicate 1	robust z-score, replicate 2	robust z-score, replicate 3	outcome
CCDC181 (GeneID 57821)	1.6	1.33	1.53	inactive
COX7A2L (GeneID 9167)	0.175	-0.172	-0.623	inactive
EIF1B-AS1 (GeneID 440952)	0.948	1.96	1.71	inactive
TMEM229B (GeneID 161145)	-0.202	0.0284	-0.302	inactive
TMEM53 (GeneID 79639)	0.179	0.441	0.033	inactive
KCNN2 (GeneID 3781)	-1.31	-1.29	-1.1	inactive
SLC1A6 (GeneID 6511)	1.02	2.37	1.95	active
HES6 (GeneID 55502)	-0.197	0.465	0.94	inactive
CFAP100 (GeneID 348807)	0.937	1.85	1.76	inactive
ENSA (GeneID 2029)	0.986	1.77	1.75	inactive
LMAN2L (GeneID 81562)	-0.438	0.13	0.618	inactive
JOSD1 (GeneID 9929)	-1.78	-0.708	1.49	inactive
ANKRD60 (GeneID 140731)	0.38	0.517	-0.713	inactive
KMT5B (GeneID 51111)	-1.52	-1.94	-0.807	inactive
DCST1 (GeneID 149095)	-0.0453	0.18	-0.322	inactive
LOC389224 (retired record) (GeneID 389224)	-0.285	-0.734	-0.385	inactive
OXCT2 (GeneID 64064)	-0.734	0.553	-0.797	inactive
KIRREL2 (GeneID 84063)	-0.133	-0.0669	0.313	inactive
TMTC2 (GeneID 160335)	1.74	2.8	2.02	active
LOC338750 (retired record) (GeneID 338750)	-0.218	-0.385	-0.0094	inactive
ILDR2 (GeneID 387597)	0.761	1.1	0.927	inactive
GPR52 (GeneID 9293)	0.0416	0.301	0.933	inactive
CPSF1 (GeneID 29894)	-4.18	-2.64	-1.72	active
HEPACAM2 (GeneID 253012)	-1.28	-0.744	-1.3	inactive
PMM1 (GeneID 5372)	0.662	-0.354	0.964	inactive
PLRG1 (GeneID 5356)	0.261	0.649	1.32	inactive
NDUFV1 (GeneID 4723)	-1.1	-0.558	-0.7	inactive
CFAP144P1 (GeneID 340286)	-0.539	-0.44	-0.289	inactive
CT45A5 (GeneID 441521)	0.747	0.537	0.226	inactive
PPFIA3 (GeneID 8541)	-0.212	-1.26	-0.241	inactive
LINC01011 (GeneID 401232)	1.03	-1.36	0.935	inactive
OR4L1 (GeneID 122742)	0.689	1.24	0.652	inactive
LOC440358 (retired record) (GeneID 440358)	-0.536	-0.283	-0.763	inactive
SCG3 (GeneID 29106)	1	-0.555	0.135	inactive
ARHGAP4 (GeneID 393)	-1.19	-1.14	-0.97	inactive
GPLD1 (GeneID 2822)	-0.00891	0.666	0.358	inactive
ABCA9 (GeneID 10350)	0.986	0.83	0.121	inactive
FTCD (GeneID 10841)	-2.52	-1.01	2.85	inactive
CYB5B (GeneID 80777)	-0.509	-0.284	-0.578	inactive
COG3 (GeneID 83548)	0.0373	-0.633	0.506	inactive
ASAP1 (GeneID 50807)	-0.428	-0.488	-0.208	inactive
GPR25 (GeneID 2848)	0.792	0.619	1.12	inactive
TPM4 (GeneID 7171)	-0.0902	-1.1	-0.24	inactive
MKLN1 (GeneID 4289)	-0.172	-1.28	-0.113	inactive
CYP27A1 (GeneID 1593)	-0.405	-0.688	-0.693	inactive
CNTROB (GeneID 116840)	0.616	2.87	2.4	active
ARMC9 (GeneID 80210)	-1.58	-1.24	-0.77	inactive
RDH8 (GeneID 50700)	0.957	0.73	0.548	inactive
MTSS1 (GeneID 9788)	-1.21	-1.07	0.45	inactive
WBSCR23 (GeneID 107986810)	-1.2	-1.33	-1.02	inactive
CCDC42 (GeneID 146849)	-1.28	-0.7	-1.13	inactive
PLLP (GeneID 51090)	-0.00648	1.19	0.254	inactive
BEND6 (GeneID 221336)	-0.481	-0.733	-0.549	inactive
MED29 (GeneID 55588)	0.565	2.3	0.36	inactive
MRPL17 (GeneID 63875)	-0.578	-0.695	-1.37	inactive
LOC389323 (retired record) (GeneID 389323)	-0.0582	-0.287	0.000806	inactive
SYT15 (GeneID 83849)	0.448	-0.116	0.705	inactive
LOC441540 (retired record) (GeneID 441540)	1.72	1.16	0.72	inactive
SEMA4B (GeneID 10509)	-0.812	-0.274	-0.536	inactive
RBM10 (GeneID 8241)	-0.755	0.358	-1.11	inactive
COL4A5 (GeneID 1287)	0.175	-0.991	-0.752	inactive
MIGA2 (GeneID 84895)	0.797	0.912	0.681	inactive
SDF2 (GeneID 6388)	2.54	1.4	2.69	active
RAPGEFL1 (GeneID 51195)	-0.465	-0.0458	0.0419	inactive
CTNNA1 (GeneID 1495)	-0.163	0.585	1.47	inactive
TAGLN3 (GeneID 29114)	-2.56	-1.07	-1.81	inactive
HAP1 (GeneID 9001)	0.249	-0.323	-0.971	inactive
NFYA (GeneID 4800)	1.21	0.669	1.34	inactive

Reagents listed so far marked active, once more:
target gene	robust z-score, replicate 1	robust z-score, replicate 2	robust z-score, replicate 3	outcome
SLC1A6 (GeneID 6511)	1.02	2.37	1.95	active
TMTC2 (GeneID 160335)	1.74	2.8	2.02	active
CPSF1 (GeneID 29894)	-4.18	-2.64	-1.72	active
CNTROB (GeneID 116840)	0.616	2.87	2.4	active
SDF2 (GeneID 6388)	2.54	1.4	2.69	active
